The assay concerns the target PFKP mutant L596A (human) (UniProt Q01813). The assay is described as follows: co-IP; TU177 cells transfected with FLAG-PFKP (wild type or mutants) and HA-ERK2 plasmids; IP for FLAG and HA, Western blotting. On the technique in general: In western blotting, separated proteins are transferred to a membrane and probed.

Protein sequences, listed by entry. Tags and fused reporters are not part of them. Lines headed by an entry give the natural chain unless they say otherwise; changes in a name come on top.
UniProt Q01813: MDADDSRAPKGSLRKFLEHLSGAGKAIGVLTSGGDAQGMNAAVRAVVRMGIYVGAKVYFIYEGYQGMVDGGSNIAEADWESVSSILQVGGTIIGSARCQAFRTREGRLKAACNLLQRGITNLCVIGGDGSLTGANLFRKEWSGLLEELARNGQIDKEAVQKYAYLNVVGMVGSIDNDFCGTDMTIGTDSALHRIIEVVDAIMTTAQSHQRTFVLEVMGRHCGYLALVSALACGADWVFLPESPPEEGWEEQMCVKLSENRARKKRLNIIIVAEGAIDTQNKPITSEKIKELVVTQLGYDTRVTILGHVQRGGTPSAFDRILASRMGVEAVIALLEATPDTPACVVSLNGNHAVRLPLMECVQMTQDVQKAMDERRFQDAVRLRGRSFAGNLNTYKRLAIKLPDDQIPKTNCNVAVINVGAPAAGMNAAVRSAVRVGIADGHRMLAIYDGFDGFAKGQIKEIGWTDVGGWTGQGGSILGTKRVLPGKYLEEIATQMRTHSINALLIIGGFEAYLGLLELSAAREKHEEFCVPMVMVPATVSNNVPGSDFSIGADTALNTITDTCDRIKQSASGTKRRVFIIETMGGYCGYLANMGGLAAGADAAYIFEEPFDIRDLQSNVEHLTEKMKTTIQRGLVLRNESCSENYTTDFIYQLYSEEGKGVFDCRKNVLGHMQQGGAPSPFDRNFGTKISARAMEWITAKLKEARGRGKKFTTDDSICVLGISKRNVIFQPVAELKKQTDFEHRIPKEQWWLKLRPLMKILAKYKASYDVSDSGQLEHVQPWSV
UniProt P28482: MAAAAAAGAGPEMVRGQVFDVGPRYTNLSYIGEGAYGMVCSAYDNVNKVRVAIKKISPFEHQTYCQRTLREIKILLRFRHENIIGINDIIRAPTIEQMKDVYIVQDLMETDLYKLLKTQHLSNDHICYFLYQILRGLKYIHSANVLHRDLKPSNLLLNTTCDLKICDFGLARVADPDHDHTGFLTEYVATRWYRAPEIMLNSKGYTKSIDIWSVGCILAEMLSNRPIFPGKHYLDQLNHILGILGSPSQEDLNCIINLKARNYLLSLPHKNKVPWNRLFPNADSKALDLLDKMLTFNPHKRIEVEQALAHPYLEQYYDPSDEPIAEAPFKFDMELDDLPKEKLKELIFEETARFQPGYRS

No constants are given. Whether binding was seen depends on the method and setting. Binding seen in cells or lysates may run through a third protein. A result given as binding can be weak or reduced; the word gives no strength.

The text below walks through data of article PMC11232239.

For “HA-tagged ERK2 (from UniProt P28482 1-360)”, the binding result is listed as “binds”.
